What all share (assay): MAPPIT interaction score (arbitrary units); higher = stronger binary interaction signal, active = hit call of the paper
Assay [1] has as its target CG15771. Conditions: MAPPIT configuration: N-N; pair source set: screen_1. As for the experimental part: (§1)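 MAPPIT in HEK293T cells: Drosophila bait and prey ORFs (from the FlyBi ORF collection) were co-transfected in quadruplicate, with two wells stimulated by erythropoietin. Interaction-dependent JAK-STAT activation was read out with a STAT-responsive firefly luciferase reporter. Positive calls use the 99th percentile of random reference set (RRS) scores within each batch […]. Batches Dvs01 and Dvs02 used the N-N configuration and Dvs04 the N-C configuration. Pairs come from FlyBi screens, CuraGen, DPiM, Finley Y2H, Lit-BM-16, Lit-BS-16 and RRS.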

In assay [2] the target is CG34453. Conditions: MAPPIT configuration: N-C; pair source set: screen_4. How it is done:
as §1

Assay [3] has as its target D. Conditions: MAPPIT configuration: N-N; pair source set: screen_2. As for the experimental part: as §1
Assay [4] has as its target hbn. The settings on record: MAPPIT configuration: N-N; pair source set: screen_2. How it is done:
as §1

In assay [5] the target is Dyb. The settings on record: MAPPIT configuration: N-N; pair source set: screen_2. How it is done: as §1

The entries are a selection whose mix differs from that of the whole data set. Some of the results follow.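 The calls were made as follows: active = MAPPIT score above the 99th percentile of random reference set scores in the same batch; inactive = at or below it.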
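Also: HEK293T cells with Epo stimulation, STAT-responsive firefly luciferase reporter, fold induction versus unstimulated cells divided by the larger fold induction of two negative controls lacking either bait or prey.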

B1: D (protein)
chain: MATLSTHPNYGFHLGQAQGLEDYAPQSQLQLSPGMDMDIKRVLHYSQSLAAMGGSPNGPAGQGVNGSSGMGHHMSSHMTPHHMHQAVSAQQTLSPNSSIGSAGSLGSQSSLGSNGSGLNSSSGHQSAGMHSLATSPGQEGHIKRPMNAFMVWSRLQRRQIAKDNPKMHNSEISKRLGAEWKLLAESEKRPFIDEAKRLRALHMKEHPDYKYRPRRKPKNPLTAGPQGGLQMQAGGMGQQKLGAGPGAGAGGYNPFHQLPPYFAPSHHLDQGYPVPYFGGFDPLALSKLHQSQAAAAAAVNNQGQQQGQAPPQLPPTSLSSFYSGIYSGISAPSLYAAHSANAAGLYPSSSTSSPGSSPGTITPNGMDGSMDSALRRPVPVLY
For the molecule B1, the MAPPIT interaction score in assay [1] was inactive: 1.69; in assay [2], inactive: 2.42; in assay [3], inactive: -1.14; in assay [4], inactive: -0.946.

B2: ey (protein)
chain: MRNLPCLGTAGGSGLGGIAGKPSPTMEAVEASTASHRHSTSSYFATTYYHLTDDECHSGVNQLGGVFVGGRPLPDSTRQKIVELAHSGARPCDISRILQVSNGCVSKILGRYYETGSIRPRAIGGSKPRVATAEVVSKISQYKRECPSIFAWEIRDRLLQENVCTNDNIPSVSSINRVLRNLAAQKEQQSTGSGSSSTSAGNSISAKVSVSIGGNVSNVASGSRGTLSSSTDLMQTATPLNSSESGGASNSGEGSEQEAIYEKLRLLNTQHAAGPGPLEPARAAPLVGQSPNHLGTRSSHPQLVHGNHQALQQHQQQSWPPRHYSGSWYPTSLSEIPISSAPNIASVTAYASGPSLAHSLSPPNDIESLASIGHQRNCPVATEDIHLKKELDGHQSDETGSGEGENSNGGASNIGNTEDDQARLILKRKLQRNRTSFTNDQIDSLEKEFERTHYPDVFARERLAGKIGLPEARIQVWFSNRRAKWRREEKLRNQRRTPNSTGASATSSSTSATASLTDSPNSLSACSSLLSGSAGGPSVSTINGLSSPSTLSTNVNAPTLGAGIDSSESPTPIPHIRPSCTSDNDNGRQSEDCRRVCSPCPLGVGGHQNTHHIQSNGHAQGHALVPAISPRLNFNSGSFGAMYSNMHHTALSMSDSYGAVTPIPSFNHSAVGPLAPPSPIPQQGDLTPSSLYPCHMTLRPPPMAPAHHHIVPGDGGRPAGVGLGSGQSANLGASCSGSGYEVLSAYALPPPPMASSSAADSSFSAASSASANVTPHHTIAQESCPSPCSSASHFGVAHSSGFSSDPISPAVSSYAHMSYNYASSANTMTPSSASGTSAHVAPGKQQFFASCFYSPWV
For the molecule B2, in assay [5], the MAPPIT interaction score was inactive: -0.142.

The values are drawn from the supplement of paper PMC10105736.
